Laboratory results: PubChem BioAssay AID1508597 (Cure First, 2020)

Aim: 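Knock-downs altering ovarian cancer cell survival with or without PARP inhibitor rucaparib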 (primary screen)
Cells: human ovarian carcinoma lines grown from tumours: OCI-P5x (papillary serous) and OCI-C5x (clear cell)
Reagent: siRNA pool against human genes, 1.25 pmol siRNA per well
Time to read-out: 72 h or 96 h, depending on the cell culture
Challenge: rucaparib 20 µM (about IC30) or vehicle, present until read-out
Rucaparib or vehicle: Vehicle
Cell line: OCI-P5x (serous)
Measurement: 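ATP luminescence measured at 72 or 96 h according to the culture, then normalised and expressed as percent viability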
Direction: viability, normalised: higher = more viable cells remaining
Rule for the call: 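a well counts as a hit if its normalised viability is under 80 percent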
Calls: active = viability under 80%; inactive = viability 80% or more
Shown is an unselected part of the about 2,100 reagents, in one setting of the screen. 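Calls flag viability under 80% in either arm, not effects specific to rucaparib; the reference for percent is not stated.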 A reagent listed more than once was tested more than once; the source does not tell the runs apart. The record does not give: the 100% reference.

gene symbol | technical replicate | viability, normalised (%) | activity call
ZNF541 | 1 | 62.5 | active
ZNF541 | 2 | 77.2 | active
ZNF541 | 3 | 43.8 | active
ATOH1 | 1 | 70.2 | active
ATOH1 | 2 | 72.1 | active
ATOH1 | 3 | 84.3 | inactive
TAF5L | 1 | 73.3 | active
TAF5L | 2 | 78 | active
TAF5L | 3 | 80.9 | inactive
EPHB6 | 1 | 106 | inactive
EPHB6 | 2 | 96.6 | inactive
EPHB6 | 3 | 83.8 | inactive
H4C13 | 1 | 52.7 | active
H4C13 | 2 | 60.1 | active
H4C13 | 3 | 70.8 | active
PCDHB6 | 1 | 68.6 | active
PCDHB6 | 2 | 64.9 | active
PCDHB6 | 3 | 115 | inactive

The list goes on, starting with the last 3 of the part before.
gene symbol | technical replicate | viability, normalised (%) | activity call
PCDHB6 | 1 | 68.6 | active
PCDHB6 | 2 | 64.9 | active
PCDHB6 | 3 | 115 | inactive
NFAM1 | 1 | 58.9 | active
NFAM1 | 2 | 66 | active
NFAM1 | 3 | 73.5 | active
BUB1 | 1 | 67.8 | active
BUB1 | 1 | 57.2 | active
BUB1 | 2 | 53.1 | active
BUB1 | 2 | 57.9 | active
BUB1 | 3 | 55 | active
BUB1 | 3 | 52.4 | active
RECQL4 | 1 | 153 | inactive
RECQL4 | 1 | 76.2 | active
RECQL4 | 1 | 61 | active
RECQL4 | 2 | 142 | inactive
RECQL4 | 2 | 76.6 | active
RECQL4 | 2 | 70.8 | active
RECQL4 | 3 | 119 | inactive
RECQL4 | 3 | 90.2 | inactive
RECQL4 | 3 | 74.2 | active
CASP3 | 1 | 76.4 | active
CASP3 | 2 | 64.2 | active
CASP3 | 3 | 86.7 | inactive
